The test has as its target soluble form of human recombinant TLR2 (extracellular domain Glu 21-Leu 590) (human) (UniProt O60603). Nature of the test: other fluorescence titration; intrinsic tyrosine fluorescence of soluble TLR-2 (15 or 76 nM), excitation 277 nm, change at 335 nm; complexes preformed in 20 mM Tris-HCl, 200 mM NaCl, pH 8.0, 4°C, 1 hour, read at room temperature; hyperbolic fit, one single binding site model; both purified.

Amino acid sequences for entries named in this document (tags omitted). Residues count along the entry.
UniProt O60603, residues 21-590: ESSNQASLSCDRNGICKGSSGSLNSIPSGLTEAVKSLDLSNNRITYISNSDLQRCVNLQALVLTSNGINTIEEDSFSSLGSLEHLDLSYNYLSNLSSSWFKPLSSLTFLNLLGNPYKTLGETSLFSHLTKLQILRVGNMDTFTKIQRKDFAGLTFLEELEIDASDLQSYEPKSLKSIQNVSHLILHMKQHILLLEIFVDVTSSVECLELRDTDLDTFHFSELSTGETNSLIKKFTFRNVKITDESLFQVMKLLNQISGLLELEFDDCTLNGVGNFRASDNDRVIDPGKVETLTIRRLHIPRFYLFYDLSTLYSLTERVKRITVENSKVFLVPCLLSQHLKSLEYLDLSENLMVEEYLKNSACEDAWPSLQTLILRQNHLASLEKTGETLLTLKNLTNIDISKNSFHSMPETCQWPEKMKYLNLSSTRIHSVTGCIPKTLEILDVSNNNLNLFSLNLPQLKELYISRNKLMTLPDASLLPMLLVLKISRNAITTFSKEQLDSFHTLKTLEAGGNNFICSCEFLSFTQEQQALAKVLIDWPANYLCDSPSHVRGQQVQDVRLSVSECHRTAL

Binding data for one molecule are collected here from publication PMC2413007.

These are yes or no findings as the source states them, for the method shown. Some binding calls cover weakened binding; strength is not graded here.

Regarding CSKKKK (Pam2 (lipid part of the lipopeptide, as in the name Pam2CSK4)) [Pam2CSK4 lipopeptide], the binding entry is given as “binds”.
